# From the supplement of paper PMC10849652
# Protein sequences, listed by entry. Tags and fused reporters are not part of them. Lines headed by an entry give the natural chain unless they say otherwise; changes in a name come on top.
# UniProt Q9BY78: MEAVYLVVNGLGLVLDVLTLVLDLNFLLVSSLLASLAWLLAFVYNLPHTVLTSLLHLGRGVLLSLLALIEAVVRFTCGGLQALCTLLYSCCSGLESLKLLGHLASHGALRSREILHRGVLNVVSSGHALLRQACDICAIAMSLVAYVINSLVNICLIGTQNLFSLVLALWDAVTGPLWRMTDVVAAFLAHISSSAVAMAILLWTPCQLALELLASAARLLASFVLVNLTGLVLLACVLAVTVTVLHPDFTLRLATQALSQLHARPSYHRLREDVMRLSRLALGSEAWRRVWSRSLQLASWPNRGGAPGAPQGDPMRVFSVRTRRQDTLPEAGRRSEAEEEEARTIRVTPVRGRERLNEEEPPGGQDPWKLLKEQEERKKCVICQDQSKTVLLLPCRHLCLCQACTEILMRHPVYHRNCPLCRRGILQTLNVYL
# UniProt Q5M7Z0: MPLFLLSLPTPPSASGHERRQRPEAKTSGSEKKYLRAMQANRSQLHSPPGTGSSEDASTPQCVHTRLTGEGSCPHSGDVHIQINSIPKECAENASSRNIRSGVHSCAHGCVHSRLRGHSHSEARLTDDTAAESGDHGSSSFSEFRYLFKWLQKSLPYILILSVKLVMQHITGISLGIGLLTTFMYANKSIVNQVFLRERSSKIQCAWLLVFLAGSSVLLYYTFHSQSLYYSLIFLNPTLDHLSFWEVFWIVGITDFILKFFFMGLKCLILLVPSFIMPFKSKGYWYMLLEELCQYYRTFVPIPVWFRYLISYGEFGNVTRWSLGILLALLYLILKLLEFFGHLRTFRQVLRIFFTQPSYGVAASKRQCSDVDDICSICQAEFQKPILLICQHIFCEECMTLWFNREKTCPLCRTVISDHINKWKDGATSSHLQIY
# UniProt Q92834: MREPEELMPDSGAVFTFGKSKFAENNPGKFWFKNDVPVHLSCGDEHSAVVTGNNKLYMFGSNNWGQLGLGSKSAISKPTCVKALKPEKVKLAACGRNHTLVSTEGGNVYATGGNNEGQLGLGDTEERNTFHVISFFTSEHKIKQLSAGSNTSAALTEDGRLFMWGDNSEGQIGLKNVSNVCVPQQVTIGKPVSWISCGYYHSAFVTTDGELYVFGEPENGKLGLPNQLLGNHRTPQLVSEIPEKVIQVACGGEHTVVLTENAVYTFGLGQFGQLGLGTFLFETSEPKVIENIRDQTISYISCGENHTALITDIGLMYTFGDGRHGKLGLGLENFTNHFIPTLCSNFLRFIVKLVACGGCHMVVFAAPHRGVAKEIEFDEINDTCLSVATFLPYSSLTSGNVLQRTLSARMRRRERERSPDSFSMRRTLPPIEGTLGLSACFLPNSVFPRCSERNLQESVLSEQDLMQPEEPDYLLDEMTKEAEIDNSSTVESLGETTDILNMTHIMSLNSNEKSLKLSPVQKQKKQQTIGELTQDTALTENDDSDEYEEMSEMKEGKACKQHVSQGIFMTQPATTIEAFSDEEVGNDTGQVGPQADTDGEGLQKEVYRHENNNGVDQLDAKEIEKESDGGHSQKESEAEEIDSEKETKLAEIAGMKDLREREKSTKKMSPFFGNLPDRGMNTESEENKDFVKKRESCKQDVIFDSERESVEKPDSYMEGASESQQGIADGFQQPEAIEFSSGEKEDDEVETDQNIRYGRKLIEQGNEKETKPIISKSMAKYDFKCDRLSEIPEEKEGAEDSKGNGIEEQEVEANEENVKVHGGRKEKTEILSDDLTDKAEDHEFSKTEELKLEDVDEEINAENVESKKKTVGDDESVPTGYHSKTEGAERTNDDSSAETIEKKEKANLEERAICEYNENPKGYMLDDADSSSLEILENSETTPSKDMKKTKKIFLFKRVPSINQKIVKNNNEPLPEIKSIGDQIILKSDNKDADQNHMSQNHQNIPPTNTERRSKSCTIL
# UniProt Q9HB90, whole entry, looked up: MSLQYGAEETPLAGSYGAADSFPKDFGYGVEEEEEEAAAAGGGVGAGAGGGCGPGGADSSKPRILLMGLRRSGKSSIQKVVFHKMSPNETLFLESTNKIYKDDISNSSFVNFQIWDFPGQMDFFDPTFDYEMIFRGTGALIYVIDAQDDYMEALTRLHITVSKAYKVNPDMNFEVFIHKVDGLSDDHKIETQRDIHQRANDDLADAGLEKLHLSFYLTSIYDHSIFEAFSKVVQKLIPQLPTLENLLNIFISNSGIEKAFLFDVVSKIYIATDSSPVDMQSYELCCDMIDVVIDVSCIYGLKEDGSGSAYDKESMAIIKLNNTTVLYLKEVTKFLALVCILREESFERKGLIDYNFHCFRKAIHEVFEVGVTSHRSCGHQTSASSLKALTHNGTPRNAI
# UniProt Q86UA6: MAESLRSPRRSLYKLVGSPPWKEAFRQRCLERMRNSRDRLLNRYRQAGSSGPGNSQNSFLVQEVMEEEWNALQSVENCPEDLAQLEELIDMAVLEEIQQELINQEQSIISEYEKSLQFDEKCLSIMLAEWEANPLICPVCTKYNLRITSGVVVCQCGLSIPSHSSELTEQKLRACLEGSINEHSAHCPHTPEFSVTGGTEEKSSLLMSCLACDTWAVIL
# UniProt Q9H7B2: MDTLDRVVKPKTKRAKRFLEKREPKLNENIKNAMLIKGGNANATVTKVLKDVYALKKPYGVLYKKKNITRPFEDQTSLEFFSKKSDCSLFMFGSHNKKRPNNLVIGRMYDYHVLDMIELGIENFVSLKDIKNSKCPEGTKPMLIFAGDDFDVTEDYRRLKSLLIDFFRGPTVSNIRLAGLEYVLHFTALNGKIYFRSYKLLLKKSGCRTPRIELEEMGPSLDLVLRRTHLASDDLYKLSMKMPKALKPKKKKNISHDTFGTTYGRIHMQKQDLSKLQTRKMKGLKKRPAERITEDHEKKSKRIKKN
# UniProt Q9UBS0: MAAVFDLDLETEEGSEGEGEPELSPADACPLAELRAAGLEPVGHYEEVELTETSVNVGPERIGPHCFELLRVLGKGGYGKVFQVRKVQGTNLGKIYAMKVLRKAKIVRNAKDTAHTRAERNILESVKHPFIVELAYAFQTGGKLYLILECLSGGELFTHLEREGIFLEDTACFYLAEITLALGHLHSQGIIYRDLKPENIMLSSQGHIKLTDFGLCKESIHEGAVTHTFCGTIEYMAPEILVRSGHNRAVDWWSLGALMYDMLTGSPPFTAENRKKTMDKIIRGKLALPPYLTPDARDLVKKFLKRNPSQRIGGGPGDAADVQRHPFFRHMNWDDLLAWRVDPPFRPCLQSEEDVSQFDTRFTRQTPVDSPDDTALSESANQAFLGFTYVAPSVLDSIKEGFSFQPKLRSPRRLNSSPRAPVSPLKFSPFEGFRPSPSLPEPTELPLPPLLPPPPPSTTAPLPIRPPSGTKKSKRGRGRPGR
# UniProt P08922: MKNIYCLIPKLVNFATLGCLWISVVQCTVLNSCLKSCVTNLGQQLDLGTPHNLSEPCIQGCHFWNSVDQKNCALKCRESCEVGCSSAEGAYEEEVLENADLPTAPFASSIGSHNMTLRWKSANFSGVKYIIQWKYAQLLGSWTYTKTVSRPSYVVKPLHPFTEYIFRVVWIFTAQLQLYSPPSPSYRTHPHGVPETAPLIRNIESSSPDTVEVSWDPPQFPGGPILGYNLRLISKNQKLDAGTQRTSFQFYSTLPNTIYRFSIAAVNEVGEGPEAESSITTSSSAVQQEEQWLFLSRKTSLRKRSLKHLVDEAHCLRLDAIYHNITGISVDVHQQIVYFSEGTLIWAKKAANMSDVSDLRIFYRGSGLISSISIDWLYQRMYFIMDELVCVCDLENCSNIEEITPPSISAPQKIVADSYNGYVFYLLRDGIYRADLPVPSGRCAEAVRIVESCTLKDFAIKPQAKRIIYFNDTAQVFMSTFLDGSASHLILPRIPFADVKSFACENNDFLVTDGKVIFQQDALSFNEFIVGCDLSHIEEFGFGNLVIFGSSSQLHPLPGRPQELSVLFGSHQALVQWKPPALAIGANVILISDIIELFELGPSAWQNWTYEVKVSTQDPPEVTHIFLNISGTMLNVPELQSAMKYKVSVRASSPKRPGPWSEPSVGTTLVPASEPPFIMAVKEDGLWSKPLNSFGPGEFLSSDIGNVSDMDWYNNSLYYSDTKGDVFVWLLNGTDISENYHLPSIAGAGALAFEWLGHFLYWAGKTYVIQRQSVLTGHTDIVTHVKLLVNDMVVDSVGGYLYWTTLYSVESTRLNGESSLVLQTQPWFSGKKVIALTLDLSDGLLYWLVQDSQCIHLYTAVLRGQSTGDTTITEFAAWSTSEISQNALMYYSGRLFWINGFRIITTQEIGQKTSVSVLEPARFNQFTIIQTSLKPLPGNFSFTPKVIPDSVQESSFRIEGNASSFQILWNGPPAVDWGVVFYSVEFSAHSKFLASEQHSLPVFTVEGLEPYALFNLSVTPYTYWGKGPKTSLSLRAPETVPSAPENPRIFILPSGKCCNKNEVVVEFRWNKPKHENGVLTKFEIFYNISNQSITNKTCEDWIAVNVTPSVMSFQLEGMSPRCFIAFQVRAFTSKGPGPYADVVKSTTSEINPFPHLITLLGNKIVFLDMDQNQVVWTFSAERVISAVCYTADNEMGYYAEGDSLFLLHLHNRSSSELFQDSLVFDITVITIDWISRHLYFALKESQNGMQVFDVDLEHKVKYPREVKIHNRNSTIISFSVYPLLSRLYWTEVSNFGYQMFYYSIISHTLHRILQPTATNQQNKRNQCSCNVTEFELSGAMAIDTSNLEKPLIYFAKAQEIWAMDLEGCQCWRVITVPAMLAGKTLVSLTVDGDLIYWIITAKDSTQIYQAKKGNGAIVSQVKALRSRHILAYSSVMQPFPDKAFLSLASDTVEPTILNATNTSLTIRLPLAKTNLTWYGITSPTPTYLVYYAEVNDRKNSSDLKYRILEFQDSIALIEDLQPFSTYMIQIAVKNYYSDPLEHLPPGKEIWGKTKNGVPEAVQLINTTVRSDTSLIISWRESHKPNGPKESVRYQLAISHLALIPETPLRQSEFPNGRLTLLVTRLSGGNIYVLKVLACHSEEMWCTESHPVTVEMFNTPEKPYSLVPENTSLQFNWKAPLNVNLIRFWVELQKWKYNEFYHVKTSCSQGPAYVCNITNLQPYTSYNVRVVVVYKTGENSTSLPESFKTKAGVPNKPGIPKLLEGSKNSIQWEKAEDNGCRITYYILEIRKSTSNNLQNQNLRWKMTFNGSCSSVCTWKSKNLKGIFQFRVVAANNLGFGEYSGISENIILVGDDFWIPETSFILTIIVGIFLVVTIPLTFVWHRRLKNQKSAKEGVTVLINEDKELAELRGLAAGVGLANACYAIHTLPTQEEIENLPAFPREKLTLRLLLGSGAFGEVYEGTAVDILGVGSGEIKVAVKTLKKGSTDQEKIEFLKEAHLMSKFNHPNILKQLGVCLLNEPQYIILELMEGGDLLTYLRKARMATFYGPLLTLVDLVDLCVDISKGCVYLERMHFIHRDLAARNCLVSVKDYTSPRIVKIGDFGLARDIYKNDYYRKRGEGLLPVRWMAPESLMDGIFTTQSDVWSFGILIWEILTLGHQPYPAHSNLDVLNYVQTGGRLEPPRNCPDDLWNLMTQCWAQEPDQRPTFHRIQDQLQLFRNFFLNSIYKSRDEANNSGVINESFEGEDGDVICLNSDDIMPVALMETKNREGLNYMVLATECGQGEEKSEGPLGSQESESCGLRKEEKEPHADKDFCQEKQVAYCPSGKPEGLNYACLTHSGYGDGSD
# UniProt Q8IXW5, whole entry, looked up: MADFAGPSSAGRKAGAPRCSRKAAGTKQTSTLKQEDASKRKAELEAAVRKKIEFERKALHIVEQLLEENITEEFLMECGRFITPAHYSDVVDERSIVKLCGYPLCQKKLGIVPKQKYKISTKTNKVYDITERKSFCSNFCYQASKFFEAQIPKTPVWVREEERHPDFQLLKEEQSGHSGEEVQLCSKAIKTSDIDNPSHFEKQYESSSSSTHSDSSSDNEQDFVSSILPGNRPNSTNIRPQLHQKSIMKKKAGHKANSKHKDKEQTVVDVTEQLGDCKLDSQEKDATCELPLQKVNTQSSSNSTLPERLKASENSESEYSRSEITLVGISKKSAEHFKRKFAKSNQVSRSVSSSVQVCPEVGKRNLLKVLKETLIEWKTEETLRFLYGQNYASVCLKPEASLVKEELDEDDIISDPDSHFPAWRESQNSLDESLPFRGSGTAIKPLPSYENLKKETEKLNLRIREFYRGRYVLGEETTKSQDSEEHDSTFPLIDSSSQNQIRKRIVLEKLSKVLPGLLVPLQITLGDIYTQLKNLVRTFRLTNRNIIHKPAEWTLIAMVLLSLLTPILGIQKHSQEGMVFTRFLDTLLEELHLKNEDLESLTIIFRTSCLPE
# UniProt Q96P16: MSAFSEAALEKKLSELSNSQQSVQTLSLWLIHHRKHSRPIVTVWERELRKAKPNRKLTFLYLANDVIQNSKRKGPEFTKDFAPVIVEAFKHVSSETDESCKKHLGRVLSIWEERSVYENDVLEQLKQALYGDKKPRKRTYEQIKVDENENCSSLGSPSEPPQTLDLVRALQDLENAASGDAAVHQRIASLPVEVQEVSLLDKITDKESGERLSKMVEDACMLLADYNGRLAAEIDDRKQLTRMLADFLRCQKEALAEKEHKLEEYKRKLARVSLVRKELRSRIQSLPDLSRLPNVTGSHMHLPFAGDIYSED
# The list shows a part of the results. Residues, ends and D or L forms follow the SMILES beside them. *: point of attachment. Cbz = O=C(OCc1ccccc1)*
# Assays:
# Assay in all cases: log2 fold change, soluble protein after heating vs DMSO (PISA); higher = thermal stabilisation; K562 cells, 10 uM, 30 min; active = over 0.2 and 3.5 SD of the protein, either way, in both replicates (recomputed)
# [1] = compound: C#Cc1cccc(Nc2ncnc3cc(OCCOC)c(OCCOC)cc23)c1 [erlotinib]
# Outline: (§1)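 For each measurement, 10 μM compound was applied for 30 min to K562 cells at 2×10^6 cells/mL. Aliquots were heated for 3 min across 48°C-58°C, pooled, and extracted in PBS with 0.5% NP-40 at 4°C; the supernatant after 21,000xg for 90 min was soluble protein. This was quantified by TMTpro 16plex LC-MS/MS with channel sums equalised, and thermal stability was reported relative to control samples from duplicates, on a log2 fold-change scale.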
# [2] = compound: C/C(=N\NC(=O)C1=CC(=CC=C1)S(=O)(=O)N2CCOCC2)/C3=C(C=CC(=C3)Cl)O
# Outline: as §1
# [3] = compound: C1=CC(=C(C=C1Cl)C2=NC3=NC=CN=C3C(=N2)NC4=CC=NC=C4)F
# Outline: as §1
# [4] = compound: C1=CC(=CC=C1C2=NC3=C(N2)C=C(C=C3)C(=O)N)OC4=CC=C(C=C4)Cl
# Outline: as §1
# [5] = compound: C1=CC2=C(C=CC(=C2)/C=C\3/C(=O)NC(=NCC4=CC=CS4)S3)N=C1
# Outline: as §1
# [6] = compound: C1=CC2=NC=CN=C2C=C1/C=C/3\C(=O)NC(=O)S3
# Outline: as §1
# [7] = compound: C1=CC=C(C=C1)C2=NC(=C(N2)C3=CC=NC=C3)C4=CC(=C(C=C4)Cl)O
# Outline: as §1
# [8] = compound: C1=CC=C2C(=C1)C3=NNC4=CC=CC(=C43)C2=O
# Outline: as §1
# [9] = compound: C1CCN(C1)C(=O)NC2=CC=CC(=C2)NC3=NC=C(C(=N3)NCCC4=CN=CN4)Br
# Outline: as §1
# [10] = compound: C1CN(CCC1(CC2=CC=C(C=C2)Cl)N)C3=NC=NC4=C3C=CN4
# Outline: as §1
# [11] = compound: C1COCCN1CCN2C3=CC=CC=C3N=C2NC(=O)C4=CC(=CC=C4)[N+](=O)[O-] [IRAK-1-4 Inhibitor I]
# Outline: as §1
# [12] = compound: C=CC(=O)N1CCC[C@@H](n2nc(-c3ccc(Oc4ccccc4)cc3)c3c(N)ncnc32)C1 [ibrutinib]
# Outline: as §1
# [13] = compound: CC(=O)c1cnc2ccc(-c3cc(Cl)c(O)c(Cl)c3)nc2c1N[C@H]1CC[C@H](CN(C)C)CC1
# Outline: as §1
# [14] = compound: CC(C)(C)Cn1c(N)nc2ccc(-c3[nH]c(C(C)(C)C)nc3-c3ccc(F)cc3)nc21 [ralimetinib]
# Outline: as §1
# [15] = compound: CC(C)(O)CC(=O)NCCn1ccc2ncnc(Nc3ccc(Oc4cccc(C(F)(F)F)c4)c(Cl)c3)c21
# Outline: as §1
# [16] = compound: CC(C)C1=C2N=C(C=C(N2N=C1)NCC3=CC=CC=C3)NCCCCCCN
# Outline: as §1
# [17] = compound: CC(C)C[C@@H](C=O)NC(=O)[C@H](CC(C)C)NC(=O)[C@H](CC(C)C)NC(=O)OCc1ccccc1
# Outline: as §1
# [18] = compound: CC(C)N(C[C@H]1O[C@@H](n2cnc3c(N)ncnc32)[C@H](O)[C@@H]1O)[C@H]1C[C@@H](CCc2nc3cc(C(C)(C)C)ccc3[nH]2)C1 [pinometostat]
# Outline: as §1
# [19] = compound: CC1=C(C2=C(C=C1)C(=O)C3=CC=CC=C3N2CCCN)C
# Outline: as §1
# [20] = compound: CC1=C(C(CC(=O)N1)C2=CC=C(C=C2)C(F)(F)F)C(=O)NC3=C(C=C4C(=C3)C=NN4)F
# Outline: as §1
Target,log2 fold change [1],log2 fold change [2],log2 fold change [3],log2 fold change [4],log2 fold change [5],log2 fold change [6],log2 fold change [7],log2 fold change [8],log2 fold change [9],log2 fold change [10],log2 fold change [11],log2 fold change [12],log2 fold change [13],log2 fold change [14],log2 fold change [15],log2 fold change [16],log2 fold change [17],log2 fold change [18],log2 fold change [19],log2 fold change [20]
RPL31 (UniProt P62899),inactive: -0.145,inactive: -0.174,inactive: -0.444,inactive: 0.055,inactive: -0.052,inactive: -0.02,inactive: -0.047,inactive: -0.011,inactive: 0.087,inactive: -0.215,inactive: -0.168,inactive: -0.021,inactive: 0.138,inactive: 0.1,inactive: 0.052,inactive: -0.013,inactive: 0.14,inactive: 0.273,active: -0.625,–
RNF26 (UniProt Q9BY78),–,–,–,–,–,inactive: -0.08,inactive: -0.073,–,–,–,–,inactive: -0.033,–,inactive: 0.095,–,–,inactive: 0.281,–,–,–
RNFT1 (UniProt Q5M7Z0),inactive: 0.02,–,inactive: -0.109,inactive: -0.245,–,–,inactive: -0.048,–,–,–,–,–,–,inactive: 0.035,inactive: 0.021,inactive: -0.161,inactive: 0.003,–,–,inactive: 0.221
RPGR (UniProt Q92834),–,–,inactive: 0.068,–,–,–,–,–,inactive: -0.343,inactive: 0.293,–,–,–,–,inactive: -0.117,–,–,–,inactive: 0.113,–
RRAGC (UniProt Q9HB90),inactive: 0.014,inactive: 0.03,inactive: 0.047,inactive: -0.007,inactive: 0.019,inactive: 0.013,inactive: -0.051,inactive: -0.02,inactive: 0.014,inactive: 0.052,inactive: 0.033,inactive: -0.009,inactive: -0.057,inactive: -0.056,inactive: 0.004,inactive: -0.18,inactive: 0.068,inactive: -0.008,inactive: 0.034,–
RPS3A (UniProt P61247),inactive: -0.178,inactive: -0.041,inactive: -0.232,inactive: 0.062,inactive: -0.039,inactive: -0.035,inactive: -0.028,inactive: 0,inactive: 0.088,inactive: -0.162,inactive: -0.133,inactive: 0.028,inactive: 0.072,inactive: 0.053,inactive: 0.069,inactive: -0.071,inactive: 0.059,inactive: 0.108,active: -0.565,–
RPAIN isoform 8 (UniProt Q86UA6),–,inactive: 0.205,inactive: 0.085,–,inactive: -0.03,inactive: 0.048,inactive: 0.083,inactive: 0.009,inactive: -0.035,inactive: -0.002,inactive: -0.022,inactive: 0.034,inactive: -0.124,inactive: -0.048,inactive: 0.048,–,inactive: -0.221,inactive: 0.011,inactive: -0.168,–
RPF2 (UniProt Q9H7B2),inactive: 0.267,–,–,inactive: -0.001,–,–,–,–,–,–,–,–,–,–,–,inactive: 0.104,–,–,–,–
RPP30 (UniProt Q5VU11),inactive: -0.443,–,–,inactive: -0.015,–,inactive: 0.068,inactive: 0.029,–,–,–,inactive: -0.052,inactive: 0,–,inactive: -0.042,–,inactive: 0.011,inactive: 0.008,inactive: 0.047,–,inactive: 0.209
RPS6KB2 (UniProt Q9UBS0),inactive: 0.256,–,inactive: -0.016,inactive: -0.039,–,–,–,–,inactive: -0.245,inactive: -0.146,inactive: -0.044,–,–,–,inactive: -0.124,inactive: 0.331,–,inactive: 0.106,inactive: 0.299,–
RPL22L1 (UniProt Q6P5R6),inactive: -0.051,–,inactive: -0.366,inactive: 0.013,–,–,–,–,–,–,inactive: 0.052,–,–,–,inactive: 0.381,inactive: -0.202,–,inactive: 0.009,–,–
ROS1 (UniProt P08922),inactive: 0.201,inactive: 0.025,–,inactive: 0.035,inactive: 0.241,inactive: 0.128,–,inactive: 0.043,–,–,inactive: 0,inactive: -0.062,inactive: 0.028,–,–,inactive: 0.118,–,inactive: 0.064,–,inactive: 0.128
RPAP2 (UniProt Q8IXW5),inactive: 0.06,inactive: 0.44,inactive: -0.077,inactive: -0.027,inactive: -0.181,–,inactive: -0.178,inactive: 0.063,inactive: 0.045,inactive: 0.022,inactive: -0.154,–,inactive: -0.123,inactive: 0.107,inactive: -0.117,inactive: -0.022,inactive: 0.1,inactive: 0.241,inactive: -0.023,–
RPS15 (UniProt P62841),inactive: -0.173,inactive: -0.259,inactive: -0.208,inactive: 0.016,inactive: 0.028,inactive: -0.092,inactive: 0.036,inactive: -0.131,inactive: 0.188,inactive: -0.138,inactive: -0.114,inactive: 0.11,inactive: -0.042,inactive: 0.076,inactive: 0.103,inactive: -0.043,inactive: 0.11,inactive: 0.088,active: -0.574,–
RPLP0 (UniProt F8VWV4),–,inactive: -0.428,inactive: -0.595,–,inactive: 0.099,–,–,inactive: -0.342,inactive: 0.194,inactive: -0.115,inactive: -0.012,–,inactive: -0.112,–,inactive: 0.092,–,–,inactive: 0.153,inactive: -0.136,–
RPS25 (UniProt P62851),inactive: -0.083,inactive: -0.071,inactive: -0.276,inactive: 0.077,inactive: -0.075,inactive: -0.091,inactive: -0.067,inactive: 0.033,inactive: 0.061,inactive: -0.141,inactive: -0.08,inactive: 0.01,inactive: 0.069,inactive: 0.073,inactive: 0.033,inactive: -0.028,inactive: 0.054,inactive: 0.184,active: -0.533,–
RPS3 (UniProt E9PJN9),–,–,–,–,–,–,inactive: 0.203,–,inactive: 0.021,inactive: -0.151,–,–,–,inactive: 0.228,–,–,inactive: 0.134,–,inactive: -0.126,–
RPL7L1 (UniProt Q6DKI1),–,–,inactive: -0.628,–,–,inactive: 0.053,inactive: -0.051,–,–,–,inactive: 0.239,inactive: 0.103,–,inactive: 0.23,inactive: 0.162,–,inactive: 0.368,inactive: 0.259,–,inactive: 0.048
"RPS7, A0A2R8Y623",inactive: 0.191,inactive: -0.203,–,inactive: -0.165,inactive: 0.465,inactive: -0.486,inactive: -0.803,inactive: -0.409,inactive: -0.568,inactive: -0.035,inactive: -0.342,inactive: 0.263,inactive: -0.015,inactive: 0.19,–,inactive: 0.048,inactive: -0.19,inactive: -0.108,inactive: 0.79,inactive: -0.385
RPRD1A (UniProt Q96P16),inactive: 0.141,inactive: 0.217,inactive: 0.076,inactive: -0.015,inactive: 0.222,–,inactive: 0.168,inactive: 0.123,inactive: -0.131,inactive: 0.057,–,–,inactive: -0.187,inactive: -0.071,inactive: -0.217,inactive: -0.028,inactive: 0.076,–,inactive: 0.107,–
